According to paper PMC12046042:
No constants are given. Whether binding was seen depends on the method and setting. Some results given as binding are weak or reduced against the parent protein; the word gives no strength. Tags and fused reporters may be left off the sequences shown.

Target: T1, CD200R (human (endogenous in HEL92.1.7)) (UniProt Q8TD46)
T1 sequence: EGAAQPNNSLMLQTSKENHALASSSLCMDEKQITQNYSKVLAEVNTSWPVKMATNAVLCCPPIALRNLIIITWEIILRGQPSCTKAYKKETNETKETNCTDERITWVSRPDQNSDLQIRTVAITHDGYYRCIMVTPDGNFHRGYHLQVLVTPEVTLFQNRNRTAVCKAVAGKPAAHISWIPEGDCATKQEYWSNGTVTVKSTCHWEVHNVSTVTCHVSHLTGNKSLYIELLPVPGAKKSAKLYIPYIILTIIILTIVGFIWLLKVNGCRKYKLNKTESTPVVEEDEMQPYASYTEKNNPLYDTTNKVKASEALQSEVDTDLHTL
Experiment: flow cytometry on cells; HEL92.1.7 cells naturally expressing CD200R, preincubated 2 h at room temperature with 66 nM ucenprubart, hCD200Fc or isotype control, Fc blocked, then a titration of the hCD200Fc ligand; only the binder purified

B1: hCD200-Fc (Fc fusion, UniProt P41217 31-232)
chain: QVQVVTQDEREQLYTPASLKCSLQNAQEALIVTWQKKKAVSPENMVTFSENHGVVIQPAYKDKINITQLGLQNSTITFWNITLEDEGCYMCLFNTFGFGKISGTACLTVYVQPIVSLHYKFSEDHLNITCSATARPAPMVFWKVPRSGIENSTVTLSHPNGTTSVTSILHIKDPKNQVGKEVICQVLHLGTVTDFKQTVNKG
Q: How did the binding turn out when B1 was run?
A: binds
